Measurements from patent publication US11135186B2, “Regulators of the endoplasmic reticulum proteostasis network” (The Scripps Research Institute, priority 2015, dated 2021).

Test: Promiscuity: number of screening assays in which the compound was found active

| SMILES | Promiscuity (number of screening assays in which the compound was found active) |
| --- | --- |
| O=[N+]([O-])c1ccc(N/N=C/c2ccccc2O)cc1 [Compound 263] | 1 out of 31 |
| Cc1ccc(O)c(N/C=C/C(=O)c2ccc(F)cc2)c1 [Compound 132] | 2 out of 32 |
| Cc1ccc(O)c(NC(=O)CCc2ccccc2)c1 [Compound 147] | 1 out of 32 |
| O=C1N/C(=C\c2ccc(O)cc2)C(=O)N1c1cccc(Cl)c1 [Compound 238] | 2 out of 31 |
| CCCc1cc(C(=O)Nc2cc(C)ccc2O)no1 [Compound 145] | 1 out of 31 |
| CCCCNNC(=O)c1ccc(Br)cc1 [Compound 5] | 1 out of 31 |
| Cc1cc(C)c(OCC(=O)N/N=C/c2ccc(Cl)c(O)c2)c(Br)c1 [Compound 258] | 1 out of 31 |
